This note sets out measurements from PMC9810639.

The target in the experiment is T1, MLO1-cLUC (Arabidopsis thaliana) (UniProt O49621).
T1 sequence: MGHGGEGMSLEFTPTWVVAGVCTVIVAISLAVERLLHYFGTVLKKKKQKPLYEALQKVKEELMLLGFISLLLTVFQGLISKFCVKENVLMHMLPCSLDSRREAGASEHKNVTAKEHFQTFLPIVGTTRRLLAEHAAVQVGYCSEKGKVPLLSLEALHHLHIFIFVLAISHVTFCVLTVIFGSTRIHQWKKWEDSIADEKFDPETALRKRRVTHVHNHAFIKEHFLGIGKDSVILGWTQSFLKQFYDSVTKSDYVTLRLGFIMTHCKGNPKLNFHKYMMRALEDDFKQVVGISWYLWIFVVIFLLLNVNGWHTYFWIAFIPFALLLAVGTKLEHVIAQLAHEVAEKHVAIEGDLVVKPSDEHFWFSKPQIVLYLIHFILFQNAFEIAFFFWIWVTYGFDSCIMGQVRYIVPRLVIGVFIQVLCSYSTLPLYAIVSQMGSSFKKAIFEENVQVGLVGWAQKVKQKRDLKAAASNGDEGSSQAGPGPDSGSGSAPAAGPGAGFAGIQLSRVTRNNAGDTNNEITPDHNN
Nature of the experiment: split reporter; split-luciferase complementation (LUC) imaging in N. benthamiana leaves co-infiltrated with Agrobacterium GV3101 carrying pairs of nLUC and cLUC constructs plus p19; leaves sprayed with 1 mM D-luciferin 36-48 h after infiltration, CCD imaging.

No constants are given. Whether binding was seen depends on the method and setting. Binding seen in cells or lysates may run through a third protein. Binding calls can cover weak binding; strength is not graded here. Sequences can lack the tags named with a protein.

As for MARIS-nLUC (Arabidopsis thaliana), the binding entry was “binds”.
Under MARIS^R240C-nLUC (Arabidopsis thaliana) stands “binds”.
